No constants are given. Whether binding was seen depends on the method and setting. In cells and extracts the contact can be indirect. Here binding means that the protein was enriched with, or labelled near, the bait; the list need not be complete.
B1: tankyrase-1 (endogenous, mouse) (enzyme, UniProt Q6PFX9 1-1320)
chain: MAASRRSQHHHHHHQQQLQPAPGASAPPPPPPPPLSPGLAPGPTPASPTAGGLAPFASPRHGLALPEGDGSRDPPDRPRSPDPVDGAVCTVAAPAAVPAASAAVGVAPTPAGGGGGGGNNSASSASSPTSSSSSSPSSPGSSLAESPEAAGVGSTATLGAGAAGLGPGVPAVSGALRELLEACRNGDVSRVKRLVDAANVNAKDMAGRKSSPLHFAAGFGRKDVVEHLLQMGANVHARDDGGLIPLHNACSFGHAEVVSLLLCQGADPNARDNWNYTPLHEAAIKGKIDVCIVLLQHGADPNIRNTDGKSALDLADPSAKAVLTGEYKKDELLEAARSGNEEKLMALLTPLNVNCHASDGRKSTPLHLAAGYNRVRIVQLLLQHGADVHAKDKGGLVPLHNACSYGHYEVTELLLKHGACVNAMDLWQFTPLHEAASKNRVEVCSLLLSHGADPTLVNCHGKSAVDMAPTPELRERLTYEFKGHSLLQAAREADLAKVKKTLALEIINFKQPQSHETALHCAVASLHPKRKQVAELLLRKGANVNEKNKDFMTPLHVAAERAHNDVMEVLHKHGAKMNALDSLGQTALHRAALAGHLQTCRLLLSYGSDPSIISLQGFTAAQMGNEAVQQILSESTPMRTSDVDYRLLEASKAGDLETVKQLCSPQNVNCRDLEGRHSTPLHFAAGYNRVSVVEYLLHHGADVHAKDKGGLVPLHNACSYGHYEVAELLVRHGASVNVADLWKFTPLHEAAAKGKYEICKLLLKHGADPTKKNRDGNTPLDLVKEGDTDIQDLLRGDAALLDAAKKGCLARVQKLCTPENINCRDTQGRNSTPLHLAAGYNNLEVAEYLLEHGADVNAQDKGGLIPLHNAASYGHVDIAALLIKYNTCVNATDKWAFTPLHEAAQKGRTQLCALLLAHGADPTMKNQEGQTPLDLATADDIRALLIDAMPPEALPTCFKPQATVVSASLISPASTPSCLSAASSIDNLTGPLTDLAVGGASNAGDGAAGAERKEGEVAGLDMNISQFLKSLGLEHLRDIFETEQITLDVLADMGHEELKEIGINAYGHRHKLIKGVERLLGGQQGTNPYLTFHCVNQGTILLDLAPEDKEYQSVEEEMQSTIREHRDGGNAGGIFNRYNVIRIQKVVNKKLRERFCHRQKEVSEENHNHHNERMLFHGSPFINAIIHKGFDERHAYIGGMFGAGIYFAENSSKSNQYVYGIGGGTGCPTHKDRSCYICHRQMLFCRVTLGKSFLQFSTMKMAHAPPGHHSVIGRPSVNGLAYAEYVIYRGEQAYPEYLITYQIMKPEAPSQTATAAEQKT
B2: TRADD (endogenous, mouse) (protein, UniProt Q3U0V2 1-310)
chain: MAAGQNGHEEWVGSAYLFLESAVDKVILSEAYTDPKKKVAIYKALQTALSESGDSSDVLQILKIHCSDPQLIVQLRFCGRVLCGRFLQAYREGALRTALQRCMAPALAQEALRLQLELRAGAEQLDSWLTDEERCLNYILAQKPDRLRDEELAELEDELCKLTCDCTGQGGAIQVASAGSKFPVSSPTEEKPLPAACQTFLFHGQLVVNRPLTLQDQQTFARSVGLKWRRVGRSLQRNCRALRDPALDSLAYEYERDGLYEQAFQLLRRFMQAEGRRATLQRLVEALEENELTSLAEDLLGQAEPDGGLA
B3: A20 (endogenous, mouse) (protein, UniProt Q60769 1-775)
chain: MAEQLLPQALYLSNMRKAVKIRERTPEDIFKPTNGIIYHFKTMHRYTLEMFRTCQFCPQFREIIHKALIDRSVQASLESQKKLNWCREVRKLVALKTNGDGNCLMHAACQYMWGVQDTDLVLRKALCSTLKETDTRNFKFRWQLESLKSQEFVETGLCYDTRNWNDEWDNLVKMASADTPAARSGLQYNSLEEIHIFVLSNILRRPIIVISDKMLRSLESGSNFAPLKVGGIYLPLHWPAQECYRYPIVLGYDSQHFVPLVTLKDSGPELRAVPLVNRDRGRFEDLKVHFLTDPENEMKEKLLKEYLIVMEIPVQGWDHGTTHLINAAKLDEANLPKEINLVDDYFELVQHEYKKWQENSDQARRAAHAQNPLEPSTPQLSLMDIKCETPNCPFFMSVNTQPLCHECSERRQKNQSKLPKLNSKLGPEGLPGVGLGSSNWSPEETAGGPHSAPPTAPSLFLFSETTAMKCRSPGCPFTLNVQHNGFCERCHARQINASHTADPGKCQACLQDVTRTFNGICSTCFKRTTAEPSSSLTSSIPASCHQRSKSDPSQLIQSLTPHSCHRTGNVSPSGCLSQAARTPGDRAGTSKCRKAGCMYFGTPENKGFCTLCFIEYRENKQSVTASEKAGSPAPRFQNNVPCLGRECGTLGSTMFEGYCQKCFIEAQNQRFHEARRTEEQLRSSQHRDMPRTTQVASRLKCARASCKNILACRSEELCMECQHLSQRVGSVAHRGEPTPEEPPKQRCRAPACDHFGNAKCNGYCNECYQFKQMYG

Protein sequences, listed by entry. Tags and fused reporters are not part of them.
UniProt O89110: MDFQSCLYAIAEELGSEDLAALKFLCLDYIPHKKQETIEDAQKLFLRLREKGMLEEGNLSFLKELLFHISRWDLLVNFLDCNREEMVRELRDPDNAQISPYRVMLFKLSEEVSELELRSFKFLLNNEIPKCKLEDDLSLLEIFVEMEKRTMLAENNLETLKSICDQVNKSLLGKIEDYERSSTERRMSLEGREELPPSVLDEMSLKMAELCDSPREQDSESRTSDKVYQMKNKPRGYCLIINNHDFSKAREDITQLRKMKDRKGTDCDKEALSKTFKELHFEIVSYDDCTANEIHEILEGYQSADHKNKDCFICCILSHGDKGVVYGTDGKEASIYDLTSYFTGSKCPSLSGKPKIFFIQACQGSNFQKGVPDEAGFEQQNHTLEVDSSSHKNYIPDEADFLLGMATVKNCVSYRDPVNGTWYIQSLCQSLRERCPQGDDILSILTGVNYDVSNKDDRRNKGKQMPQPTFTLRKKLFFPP
UniProt Q9QZL0: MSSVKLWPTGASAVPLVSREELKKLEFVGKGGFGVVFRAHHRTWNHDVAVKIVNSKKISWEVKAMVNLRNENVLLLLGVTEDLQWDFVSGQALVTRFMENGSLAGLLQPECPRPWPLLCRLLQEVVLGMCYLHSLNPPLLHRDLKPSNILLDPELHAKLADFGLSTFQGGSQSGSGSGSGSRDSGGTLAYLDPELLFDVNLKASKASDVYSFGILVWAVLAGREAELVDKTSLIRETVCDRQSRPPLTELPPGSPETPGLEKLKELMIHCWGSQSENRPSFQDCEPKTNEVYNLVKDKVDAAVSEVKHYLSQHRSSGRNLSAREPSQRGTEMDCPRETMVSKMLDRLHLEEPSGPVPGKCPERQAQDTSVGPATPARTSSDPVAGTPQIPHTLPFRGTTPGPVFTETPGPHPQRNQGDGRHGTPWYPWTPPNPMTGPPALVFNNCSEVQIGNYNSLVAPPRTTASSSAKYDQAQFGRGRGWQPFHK

target: C-terminally 3x FLAG tagged murine caspase-8 (Dox-inducible construct) (mouse) (UniProt O89110); experiment: affinity purification with mass spectrometry

binding, binds:
RIPK3 (endogenous, mouse) (from UniProt Q9QZL0 1-486)
B1
B2
B3

From publication doi:10.1101/2021.02.09.430424
